Here are results for two molecules from PMC2742731.

These are yes or no findings as the source states them, for the method shown. For part of these data: Binding can be weak; no strength is given. For part of these data: Where a sequence is shown, tags or fusion partners need not be part of it.

Assay [1] concerns the target SYP-2 full length fused to the DNA binding domain (DB) of GAL4 (C. elegans). The assay can be described thus: two-hybrid; library screen: SYP-1, SYP-2 and SYP-3 full-length constructs and N- and C-terminal truncations as baits; cDNA library from mixed-stage worms (SYP-1 and SYP-2 baits also on an ORFeome library).
The target of assay [2] is SYP-2 C-terminal truncation (ΔC) fused to the DNA binding domain (DB) of GAL4 (C. elegans). Described as above.
Assay [3] addresses SYP-1 C-terminal truncation (ΔC) fused to the DNA binding domain (DB) of GAL4 (C. elegans). The assay is described as above.
For assay [4], the target named is SYP-2 N-terminal truncation (ΔN) fused to the DNA binding domain (DB) of GAL4 (C. elegans). The assay is described as above.
The target of assay [5] is SYP-1 full length fused to the DNA binding domain (DB) of GAL4 (C. elegans). The description is as above.
In assay [6] the target is SYP-3 C-terminal truncation (ΔC) fused to the DNA binding domain (DB) of GAL4 (C. elegans). The description is as above.
Assay [7] deals with SYP-1 N-terminal truncation (ΔN) fused to the DNA binding domain (DB) of GAL4 (C. elegans). Described as above.
In assay [8] the target is SYP-2 full length fused to the DNA binding domain (DB) of GAL4 (C. elegans). Briefly: two-hybrid; direct test: SYP-1, SYP-2, SYP-3 full length, ΔN and ΔC fused to GAL4 DB, SYP-4 full length fused to GAL4 AD; β-galactosidase activity (X-Gal) and growth on 20 mM 3-AT plates.
For assay [9], the target named is SYP-3 N-terminal truncation (ΔN) fused to the DNA binding domain (DB) of GAL4 (C. elegans). The assay is described as above.
In assay [10] the target is SYP-2 C-terminal truncation (ΔC) fused to the DNA binding domain (DB) of GAL4 (C. elegans). The description is as above.
The target in assay [11] is SYP-1 C-terminal truncation (ΔC) fused to the DNA binding domain (DB) of GAL4 (C. elegans). The description is as above.
Assay [12] deals with SYP-2 N-terminal truncation (ΔN) fused to the DNA binding domain (DB) of GAL4 (C. elegans). The assay is described as above.
Assay [13] has as its target SYP-1 full length fused to the DNA binding domain (DB) of GAL4 (C. elegans). The assay is described as above.
Assay [14] concerns the target SYP-3 C-terminal truncation (ΔC) fused to the DNA binding domain (DB) of GAL4 (C. elegans). Described as above.
The target in assay [15] is SYP-1 N-terminal truncation (ΔN) fused to the DNA binding domain (DB) of GAL4 (C. elegans). The description is as above.

B1: SYP-4 (prey found in the yeast two-hybrid library screen) (protein, UniProt Q9N5K3 1-605)
chain: MSFPTLQVRPNEKNPKVLRCHEFLRQSNQLVERNMINTEGRKMLAKLLTKMVSEAKGIYALDERRAELAKSGKLQEKLKSAYQTSLTVMEDRLHIAELSRQVQEKKLTVQQKYYECDDLRKSVQETNTEARRVQEINEQRLVDTTRATEELIVKSASILKNLENSSDVHKLRAMEEEKRILEEVVEGLRDQKKCLADDIRTKKATLKAESKKSFEKTVIECAKHYKLHQSLMPKLDKSKRSLETLKDEEENRRICGSLSLDETMQFDRSFILASMDKTNKPEKAVQQLTSKSSEVSITPQISETAKSSFSKEPIPTQHPMEVGEEPVIEHSAEESVHIEPPNVTEIREVVPQITIQPTRQDSVVQRDAEELDTSAVPSPQPESILDEPEEEEEELSNHENHADQSMDVMEVDQEVPEESPMEVGEQEEIEQPSVFKDILATEQAALSQEQEPEIVEKQADNDVQFVDDQQVGAQLDVEDEEEVMSENGSNKSNNFSFNFFGNSKGTSAGEGGGEGNFDFNFDGIGAGDDGSNNGGSTGDLDFLNYDGEDEGKGSGNTQSDPFGFASNGNAAGGGGDGSFNFNFDGDGEGGATSGAGGNSTSFFNF
For the molecule B1, the binding result is “no binding” in assay [1]; “no binding” in assay [2]; “no binding” in assay [3]; “no binding” in assay [4]; “no binding” in assay [5]; “binds” in assay [6]. Also, in assay [7], the binding result was “no binding”.

B2: SYP-4 full length fused to the activation domain (AD) of GAL4 (protein, UniProt Q9N5K3 1-605)
chain: B1 chain
As to B2, the binding result in assay [8], in [9], in [10], in [11], in [12] and in assay [13] was “no binding” in each case. The binding result in assay [14] was “binds”; in assay [15], “no binding”.
